Measured values as given in the supplement of paper PMC4604168 (melanoma cell lines).
The list shows a part of the results. Repeats are few or missing, and single values can be far off.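 Cells were imaged in 1,536-well plates, and nuclei stained with an antibody against cleaved PARP were counted against all DNA-stained nuclei to give the apoptosis fraction. Screening doses were chosen to leave most cells alive, and resting and induced cleaved-PARP levels differ strongly between cell lines.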

These molecules were tested on CBRC014 (line from a melanoma biopsy) (assay: cleaved PARP positive nuclei fraction relative to DMSO control; melanoma cells; higher = more apoptosis). Conditions: library dose: low library concentration; 72 h.

Row | Compound | cleaved PARP positive nuclei fraction [%]
1 | CC(=O)O[C@@]12CO[C@@H]1C[C@H](O)[C@@]1(C)C(=O)[C@H](O)C3=C(C)[C@@H](OC(=O)[C@H](O)[C@@H](NC(=O)OC(C)(C)C)c4ccccc4)C[C@@](O)([C@@H](OC(=O)c4ccccc4)[C@H]21)C3(C)C [Docetaxel] + CCCCCCCCCCCC1=C(O)C(=O)C=C(O)C1=O [Embelin] (first compound 0.0001 µM, partner dose 1.2 µM) | 168
2 | NC1(c2ccc(-c3nc4ccn5c(=O)[nH]nc5c4cc3-c3ccccc3)cc2)CCC1 + CC(C)CCN1c2nc(Nc3cc(F)c(O)c(F)c3)ncc2N(C)C(=O)C1C [BID1870] (first compound 0.4 µM, partner dose 0.2 µM) | 99.7
3 | CS(=O)(=O)c1ccc(C(=O)Nc2ccc(Cl)c(-c3ccccn3)c2)c(Cl)c1 [vismodegib] + CCCCCCCCCCCC1=C(O)C(=O)C=C(O)C1=O [Embelin] (first compound 1 µM, partner dose 1.2 µM) | 679
4 | COc1ccc(C2=N[C@@H](c3ccc(Cl)cc3)[C@@H](c3ccc(Cl)cc3)N2C(=O)N2CCNC(=O)C2)c(OC(C)C)c1 [Nutlin-3] + COc1ccc(-c2ccc3c(N4CCOCC4)nc(N4C[C@@H](C)O[C@@H](C)C4)nc3n2)cc1CO [KU0063794] (first compound 0.1 µM, partner dose 0.02 µM) | 82
5 | Cn1cnc2c(F)c(Nc3ccc(Br)cc3Cl)c(C(=O)NOCCO)cc21 [selumetinib] + CC(C)CCN1c2nc(Nc3cc(F)c(O)c(F)c3)ncc2N(C)C(=O)C1C [BID1870] (first compound 0.015 µM, partner dose 0.2 µM) | 127
6 | CC1(C)CCC(c2ccc(Cl)cc2)=C(CN2CCN(c3ccc(C(=O)NS(=O)(=O)c4ccc(N[C@H](CCN5CCOCC5)CSc5ccccc5)c(S(=O)(=O)C(F)(F)F)c4)cc3)CC2)C1 + Cc1cc([N+](=O)[O-])ccc1NS(=O)(=O)c1cc(Cl)ccc1Cl [FH535] (first compound 0.4 µM, partner dose 1 µM) | 3810
7 | CCN(CC)CCNC(=O)c1c(C)[nH]c(/C=C2\C(=O)Nc3ccc(F)cc32)c1C [sunitinib] + Cc1cc([N+](=O)[O-])ccc1NS(=O)(=O)c1cc(Cl)ccc1Cl [FH535] (first compound 0.4 µM, partner dose 1 µM) | 132
8 | Cn1sc(=O)n(Cc2ccccc2)c1=O + COc1cc2ncnc(Nc3ccc(Oc4ccccc4)cc3)c2cc1OC [SrcI1] (first compound 0.4 µM, partner dose 2 µM) | 107
9 | NC1(c2ccc(-c3nc4ccn5c(=O)[nH]nc5c4cc3-c3ccccc3)cc2)CCC1 + COC(=O)c1sccc1S(=O)(=O)Nc1ccc(Nc2ccccc2)cc1OC [GSK0660] (first compound 0.4 µM, partner dose 1 µM) | 75.9
10 | CN(c1ncccc1CNc1nc(Nc2ccc3c(c2)CC(=O)N3)ncc1C(F)(F)F)S(C)(=O)=O + CC(C)CCN1c2nc(Nc3cc(F)c(O)c(F)c3)ncc2N(C)C(=O)C1C [BID1870] (first compound 0.08 µM, partner dose 0.2 µM) | 119
11 | Cn1sc(=O)n(Cc2ccccc2)c1=O + O=C(Nc1ccccc1)c1cc([N+](=O)[O-])ccc1Cl [GW9662] (first compound 0.4 µM, partner dose 2 µM) | 85.8
12 | NC(=O)c1ccc(N(C(N)=O)c2c(F)cccc2F)nc1-c1ccc(F)cc1F + Cn1cc(/C=C2\C(=O)Nc3cccnc32)c2ccccc21 [GW441756] (first compound 0.4 µM, partner dose 0.4 µM) | 82.4
13 | CCN(CC)CCNC(=O)c1c(C)[nH]c(/C=C2\C(=O)Nc3ccc(F)cc32)c1C [sunitinib] + COC(=O)c1sccc1S(=O)(=O)Nc1ccc(Nc2ccccc2)cc1OC [GSK0660] (first compound 0.4 µM, partner dose 1 µM) | 81
14 | Cn1sc(=O)n(Cc2ccccc2)c1=O + CC(C)CCN1c2nc(Nc3cc(F)c(O)c(F)c3)ncc2N(C)C(=O)C1C [BID1870] (first compound 0.4 µM, partner dose 0.2 µM) | 95.5
15 | Cn1sc(=O)n(Cc2ccccc2)c1=O + COc1cc(N2CCC(N3CCN(C)CC3)CC2)ccc1Nc1ncc(Cl)c(Nc2ccccc2S(=O)(=O)C(C)C)n1 [NVP-TAE684] (first compound 0.4 µM, partner dose 0.08 µM) | 97.5
16 | NC1(c2ccc(-c3nc4ccn5c(=O)[nH]nc5c4cc3-c3ccccc3)cc2)CCC1 + CCc1ccc(CCOc2ccc(CC3SC(=O)NC3=O)cc2)nc1 [pioglitazone] (first compound 0.4 µM, partner dose 2 µM) | 85
17 | NC(=O)c1ccc(N(C(N)=O)c2c(F)cccc2F)nc1-c1ccc(F)cc1F + COc1cc(N2CCC(N3CCN(C)CC3)CC2)ccc1Nc1ncc(Cl)c(Nc2ccccc2S(=O)(=O)C(C)C)n1 [NVP-TAE684] (first compound 0.4 µM, partner dose 0.08 µM) | 83.1
18 | NC1(c2ccc(-c3nc4ccn5c(=O)[nH]nc5c4cc3-c3ccccc3)cc2)CCC1 + Cc1cc([N+](=O)[O-])ccc1NS(=O)(=O)c1cc(Cl)ccc1Cl [FH535] (first compound 0.4 µM, partner dose 1 µM) | 156
19 | Cn1cnc2c(F)c(Nc3ccc(Br)cc3Cl)c(C(=O)NOCCO)cc21 [selumetinib] + Cn1cc(/C=C2\C(=O)Nc3cccnc32)c2ccccc21 [GW441756] (first compound 0.015 µM, partner dose 0.4 µM) | 85
20 | CC(=O)O[C@@]12CO[C@@H]1C[C@H](O)[C@@]1(C)C(=O)[C@H](O)C3=C(C)[C@@H](OC(=O)[C@H](O)[C@@H](NC(=O)OC(C)(C)C)c4ccccc4)C[C@@](O)([C@@H](OC(=O)c4ccccc4)[C@H]21)C3(C)C [Docetaxel] + COc1ccc2c(c1)CCC1C2CCC2(C)C(NCCCCCCN3C(=O)C=CC3=O)CCC12 [U73122] (first compound 0.0001 µM, partner dose 0.4 µM) | 183
21 | CN(c1ncccc1CNc1nc(Nc2ccc3c(c2)CC(=O)N3)ncc1C(F)(F)F)S(C)(=O)=O + Oc1cc(-c2nc(-c3ccccc3)[nH]c2-c2ccncc2)ccc1Cl [L779450] (first compound 0.08 µM, partner dose 0.2 µM) | 94.1
22 | CCN(CC)CCNC(=O)c1c(C)[nH]c(/C=C2\C(=O)Nc3ccc(F)cc32)c1C [sunitinib] + O=c1cc(-c2cccc3c2Sc2ccccc2S3)oc(N2CCOCC2)c1 [KU55933] (first compound 0.4 µM, partner dose 1 µM) | 83.7
23 | CC1(C)CCC(c2ccc(Cl)cc2)=C(CN2CCN(c3ccc(C(=O)NS(=O)(=O)c4ccc(N[C@H](CCN5CCOCC5)CSc5ccccc5)c(S(=O)(=O)C(F)(F)F)c4)cc3)CC2)C1 + COC(=O)c1sccc1S(=O)(=O)Nc1ccc(Nc2ccccc2)cc1OC [GSK0660] (first compound 0.4 µM, partner dose 1 µM) | 431
24 | COc1ccc(C2=N[C@@H](c3ccc(Cl)cc3)[C@@H](c3ccc(Cl)cc3)N2C(=O)N2CCNC(=O)C2)c(OC(C)C)c1 [Nutlin-3] + COc1ccc(COc2ccc(Cc3cnc(N)nc3N)cc2OC)cc1 [GW2580] (first compound 0.1 µM, partner dose 1 µM) | 94.6
25 | Cn1cnc2c(F)c(Nc3ccc(Br)cc3Cl)c(C(=O)NOCCO)cc21 [selumetinib] + COc1ccc2c(c1)CCC1C2CCC2(C)C(NCCCCCCN3C(=O)C=CC3=O)CCC12 [U73122] (first compound 0.015 µM, partner dose 0.4 µM) | 110
26 | CC(=O)O[C@@]12CO[C@@H]1C[C@H](O)[C@@]1(C)C(=O)[C@H](O)C3=C(C)[C@@H](OC(=O)[C@H](O)[C@@H](NC(=O)OC(C)(C)C)c4ccccc4)C[C@@](O)([C@@H](OC(=O)c4ccccc4)[C@H]21)C3(C)C [Docetaxel] + Cn1cc(/C=C2\C(=O)Nc3cccnc32)c2ccccc21 [GW441756] (first compound 0.0001 µM, partner dose 0.4 µM) | 147
27 | NC(=O)c1ccc(N(C(N)=O)c2c(F)cccc2F)nc1-c1ccc(F)cc1F + O=C(Nc1ccccc1)c1cc([N+](=O)[O-])ccc1Cl [GW9662] (first compound 0.4 µM, partner dose 2 µM) | 89.5
28 | CC1(C)CCC(c2ccc(Cl)cc2)=C(CN2CCN(c3ccc(C(=O)NS(=O)(=O)c4ccc(N[C@H](CCN5CCOCC5)CSc5ccccc5)c(S(=O)(=O)C(F)(F)F)c4)cc3)CC2)C1 + O=C(Nc1ccccc1)c1cc([N+](=O)[O-])ccc1Cl [GW9662] (first compound 0.4 µM, partner dose 2 µM) | 362
29 | CCN(CC)CCNC(=O)c1c(C)[nH]c(/C=C2\C(=O)Nc3ccc(F)cc32)c1C [sunitinib] + COc1ccc(COc2ccc(Cc3cnc(N)nc3N)cc2OC)cc1 [GW2580] (first compound 0.4 µM, partner dose 1 µM) | 95.7
30 | NC(=O)c1ccc(N(C(N)=O)c2c(F)cccc2F)nc1-c1ccc(F)cc1F + O=c1cc(-c2cccc3c2Sc2ccccc2S3)oc(N2CCOCC2)c1 [KU55933] (first compound 0.4 µM, partner dose 1 µM) | 130

Exported field by field: entries from further up.
Cn1cnc2c(F)c(Nc3ccc(Br)cc3Cl)c(C(=O)NOCCO)cc21 [selumetinib] + CC(C)CCN1c2nc(Nc3cc(F)c(O)c(F)c3)ncc2N(C)C(=O)C1C [BID1870] (first compound 0.015 µM, partner dose 0.2 µM)
  cleaved PARP positive nuclei fraction [%]: 127
COc1ccc(C2=N[C@@H](c3ccc(Cl)cc3)[C@@H](c3ccc(Cl)cc3)N2C(=O)N2CCNC(=O)C2)c(OC(C)C)c1 [Nutlin-3] + COc1ccc(COc2ccc(Cc3cnc(N)nc3N)cc2OC)cc1 [GW2580] (first compound 0.1 µM, partner dose 1 µM)
  cleaved PARP positive nuclei fraction [%]: 94.6
